PubChem BioAssay AID1224826 | NIAID | 2016

- Purpose: 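Regulators of Tlr4 signalling leading to Tnf-alpha expression in macrophages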 (primary screen)
- Cells: RAW264.7 G9 macrophages from mouse bearing reporters for p65 (GFP) and the Tnf promoter (mCherry)
- Knock-down reagent: siRNA pool against mouse genes, 100 nM
- Timing: 16 h of LPS stimulation, after 2 days of siRNA transfection
- Conditions: bacterial lipopolysaccharide (Salmonella minnesota R595), 10 ng/ml
- Measured: 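Imaged Tnf reporter mCherry in nuclei, minus background, normalised per plate to the median and expressed as robust z-scores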
- Direction: Tnf reporter robust z-score: higher = stronger Tnf promoter reporter signal after LPS; Tnf reporter intensity: higher = stronger Tnf promoter reporter signal
- Active means: 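Called active when robust z-score is at most -1.3, matching the median of the Tlr4 knock-down control, or over 3; control wells and wells with under 50 cells never active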
- Calls: active = Tnf reporter clearly lowered or raised; inactive = no clear change in Tnf reporter
This is an unselected part of about 17,000 deposited reagents. In the full data, about 1,110 (6.6%) are marked active. 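Active means lowered or raised reporter signal; replicate intensities are raw and not normalised per plate.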 A number with no mark means an inactive call. The numbers tell different reagents against one gene apart. Not all columns of the deposit are shown.

gene symbol | reagent | Tnf reporter robust z-score | fewer than 50 cells in well | Tnf reporter intensity, replicate 1
Tbxas1 | 1 | -1.12 | enough cells in well | 148
Rassf10 | 1 | -0.23 | enough cells in well | 160
Cops3 | 1 | -0.02 | enough cells in well | 211
Tsr1 | 1 | 0.76 | enough cells in well | 229
Ctcf | 1 | -1.4 (active) | enough cells in well | 127
Nars2 | 1 | -0.39 | enough cells in well | 164
Yif1a | 1 | 0.39 | enough cells in well | 116
Cend1 | 1 | -0.14 | enough cells in well | 260
Fam161a | 1 | -0.04 | enough cells in well | 196
Ip6k1 | 1 | – | fewer than 50 cells per well; well left out of calls | 161
Camkk2 | 1 | -0.02 | enough cells in well | 174
Tle6 | 1 | 0.96 | enough cells in well | 154
Ush1g | 1 | – | fewer than 50 cells per well; well left out of calls | 88.6
Timm44 | 1 | 1.78 | enough cells in well | 160
Vdr | 1 | -0.3 | enough cells in well | 177
Fcgr3 | 1 | -0.39 | enough cells in well | 192
Or5w16 | 1 | -1.05 | enough cells in well | 114
Trpv3 | 1 | -1.53 (active) | enough cells in well | 111
Tacc2 | 1 | 0.56 | enough cells in well | 280
Golph3l | 1 | – | fewer than 50 cells per well; well left out of calls | 160
Gchfr | 1 | – | fewer than 50 cells per well; well left out of calls | 191
Rac3 | 1 | 0.1 | enough cells in well | 339
Drc11 | 1 | – | fewer than 50 cells per well; well left out of calls | 192
Dock7 | 1 | – | fewer than 50 cells per well; well left out of calls | 73.8

Sorted by “Tnf reporter intensity, replicate 1” (highest first): some entries from above
gene symbol | reagent | Tnf reporter robust z-score | fewer than 50 cells in well | Tnf reporter intensity, replicate 1
Rac3 | 1 | 0.1 | enough cells in well | 339
Drc11 | 1 | – | fewer than 50 cells per well; well left out of calls | 192
Gchfr | 1 | – | fewer than 50 cells per well; well left out of calls | 191

Continued.
gene symbol | reagent | Tnf reporter robust z-score | fewer than 50 cells in well | Tnf reporter intensity, replicate 1
Cnpy1 | 1 | 1.01 | enough cells in well | 232
Bax | 1 | – | fewer than 50 cells per well; well left out of calls | 71.7
Tnni3k | 1 | 1.26 | enough cells in well | 347
Dync1i1 | 1 | -0.37 | enough cells in well | 207
Anks3 | 1 | – | fewer than 50 cells per well; well left out of calls | 147
Itih5 | 1 | 1.71 | enough cells in well | 329
D1Pas1 | 1 | -1.36 (active) | enough cells in well | 103
Or6c8 | 1 | -0.34 | enough cells in well | 123
Or6c8 | 2 | – | fewer than 50 cells per well; well left out of calls | 53.7
Svil | 1 | -0.97 | enough cells in well | 191
Tafazzin | 1 | 0.06 | enough cells in well | 222
Ddx4 | 1 | 0.04 | enough cells in well | 193
Atf2 | 1 | 1.3 | enough cells in well | 195
Cetn2 | 1 | -0.75 | enough cells in well | 115
Atp1a3 | 1 | -0.26 | enough cells in well | 151
Zfp180 | 1 | -0.34 | enough cells in well | 70.9
